According to article PMC7614608:
No constants are given. Whether binding was seen depends on the method and setting. In cells and extracts the contact can be indirect. These calls come from enrichment with a bait or labelling near it, and not all partners need be listed. Tags and fused reporters may be left off the sequences shown.

The chains behind the UniProt entries cited, without tags or fusion partners.
UniProt Q86W42: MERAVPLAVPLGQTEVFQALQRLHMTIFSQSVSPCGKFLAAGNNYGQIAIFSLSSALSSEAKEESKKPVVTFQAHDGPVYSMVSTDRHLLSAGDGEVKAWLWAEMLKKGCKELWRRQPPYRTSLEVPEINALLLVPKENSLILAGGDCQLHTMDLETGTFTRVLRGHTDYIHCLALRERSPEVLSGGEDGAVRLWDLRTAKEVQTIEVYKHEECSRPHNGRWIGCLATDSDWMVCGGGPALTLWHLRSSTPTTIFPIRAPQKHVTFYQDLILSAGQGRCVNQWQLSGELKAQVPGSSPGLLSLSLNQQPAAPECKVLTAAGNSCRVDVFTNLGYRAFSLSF
UniProt Q96J01: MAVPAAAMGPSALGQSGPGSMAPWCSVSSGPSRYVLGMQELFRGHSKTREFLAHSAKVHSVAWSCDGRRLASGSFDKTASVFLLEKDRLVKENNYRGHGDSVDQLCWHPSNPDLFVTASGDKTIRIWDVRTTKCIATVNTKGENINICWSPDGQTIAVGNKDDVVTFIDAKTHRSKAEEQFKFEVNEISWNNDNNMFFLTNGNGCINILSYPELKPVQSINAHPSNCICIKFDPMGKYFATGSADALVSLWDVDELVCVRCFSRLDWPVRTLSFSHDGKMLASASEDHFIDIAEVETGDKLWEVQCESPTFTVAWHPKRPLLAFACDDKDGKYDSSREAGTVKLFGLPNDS
UniProt Q13769: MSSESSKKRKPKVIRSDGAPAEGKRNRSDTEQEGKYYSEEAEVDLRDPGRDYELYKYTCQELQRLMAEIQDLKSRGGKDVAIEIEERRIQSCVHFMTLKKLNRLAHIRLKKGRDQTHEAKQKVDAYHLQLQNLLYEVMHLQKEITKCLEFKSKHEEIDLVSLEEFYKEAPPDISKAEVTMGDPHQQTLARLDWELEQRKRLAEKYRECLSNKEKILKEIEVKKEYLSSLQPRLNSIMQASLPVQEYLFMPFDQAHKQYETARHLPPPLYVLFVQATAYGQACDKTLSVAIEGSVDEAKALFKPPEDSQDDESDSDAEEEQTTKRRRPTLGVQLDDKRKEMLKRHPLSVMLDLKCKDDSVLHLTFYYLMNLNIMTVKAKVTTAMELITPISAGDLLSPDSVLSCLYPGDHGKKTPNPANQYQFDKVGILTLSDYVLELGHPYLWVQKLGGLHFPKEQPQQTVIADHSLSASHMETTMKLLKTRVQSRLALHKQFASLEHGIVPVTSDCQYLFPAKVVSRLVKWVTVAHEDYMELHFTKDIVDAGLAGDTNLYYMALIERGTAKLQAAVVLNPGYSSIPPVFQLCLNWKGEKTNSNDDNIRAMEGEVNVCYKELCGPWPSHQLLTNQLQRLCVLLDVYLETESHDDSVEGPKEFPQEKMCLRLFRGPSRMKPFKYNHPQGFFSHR
UniProt Q6I9Y2: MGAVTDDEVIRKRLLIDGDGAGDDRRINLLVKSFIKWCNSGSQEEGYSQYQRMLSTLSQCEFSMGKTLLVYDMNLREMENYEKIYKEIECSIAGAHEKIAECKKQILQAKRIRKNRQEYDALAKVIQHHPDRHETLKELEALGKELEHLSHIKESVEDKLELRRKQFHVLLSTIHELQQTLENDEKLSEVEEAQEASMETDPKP

These substances were tested against T1, THOC1-3C-AID-GFP (human) (UniProt Q96FV9) (assay: affinity purification with mass spectrometry; THOC1-3C-AID-GFP K562 nuclear extract, mild benzonase, GFP-Trap resin, 3C elution, sucrose gradient; SDS-PAGE bands and peak fractions identified by mass spectrometry).
T1 sequence: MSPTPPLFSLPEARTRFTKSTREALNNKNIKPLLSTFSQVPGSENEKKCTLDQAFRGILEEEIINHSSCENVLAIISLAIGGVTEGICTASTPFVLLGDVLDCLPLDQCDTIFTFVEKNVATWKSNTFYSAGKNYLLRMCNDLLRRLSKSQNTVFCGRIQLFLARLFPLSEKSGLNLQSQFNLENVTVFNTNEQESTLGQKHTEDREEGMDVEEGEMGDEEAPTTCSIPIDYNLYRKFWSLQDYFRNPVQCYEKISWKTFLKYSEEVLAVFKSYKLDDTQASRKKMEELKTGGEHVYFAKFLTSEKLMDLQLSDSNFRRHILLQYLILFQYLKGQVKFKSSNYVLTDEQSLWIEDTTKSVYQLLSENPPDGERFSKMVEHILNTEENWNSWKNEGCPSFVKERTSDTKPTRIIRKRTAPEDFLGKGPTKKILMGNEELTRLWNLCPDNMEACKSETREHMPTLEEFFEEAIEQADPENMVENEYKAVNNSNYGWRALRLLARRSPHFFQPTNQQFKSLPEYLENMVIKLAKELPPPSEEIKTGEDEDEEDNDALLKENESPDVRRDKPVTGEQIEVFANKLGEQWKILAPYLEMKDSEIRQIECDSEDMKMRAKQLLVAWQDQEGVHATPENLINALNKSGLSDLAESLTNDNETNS

binding, binds:
THOC6 (endogenous) (from UniProt Q86W42 1-341), THOC3 (endogenous) (from UniProt Q96J01 1-351), THOC5 (endogenous) (from UniProt Q13769 1-683), THOC7 (endogenous) (from UniProt Q6I9Y2 1-204)
